This is one part of the list. The main result of the screen is listed elsewhere. These columns were measured beside it and carry no call. Most of these compounds were active or inconclusive in the main read-out, so they are no random draw. Words in brackets tell the shape of the fitted curve; partial curves, single points and poor fits give uncertain potencies.
Assay: qHTS Assay for Modulators of Lamin A Splicing
Details: HeLa LMNA splicing GFP/RFP minigene ratio, 48 h
Outline: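 S3 HeLa stable clones carrying a lamin A-EGFP splicing minigene plus DsRed2 were seeded at 600 cells/well in Opti-MEM with 2% FBS, pin-dosed and incubated 48 h at 37°C. Acumen cytometry (488 nm) gave the GFP/RFP total-intensity ratio.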

[1] = measured here: RFP viability control channel
[2] = measured here: GFP splicing reporter channel

Row | SMILES | AC50 [1] | AC50 [2]
1 | Cc1cc(C)n(Cc2ccc(NC(=O)c3ccc(COc4ccccc4Br)cc3)cc2)n1 | 35.5 µM [falling, single point] | –
2 | CC[n+]1c(/C=C/N(C)c2ccccc2)oc2ccccc21 | 12.6 µM [rising, partial curve] | –
3 | CC(C)(C)N/N=C/c1c(O)n(-c2ccc(Cl)cn2)c(=O)c2ccccc12 | 0.126 µM [rising, full curve, poor fit] | 2.51 µM [rising, single point]
4 | COc1ccc(NC(=O)c2sc(Cl)nc2-c2ccccc2)cc1 | 35.5 µM [rising, single point] | –
5 | CCCCS(=O)CC(O)COc1ccc(C(C)(C)C)cc1 (centres undefined) | 22.4 µM [rising, partial curve] | –
6 | O=C(Nc1nnc(CSCc2ccc(F)cc2)s1)c1cccc([N+](=O)[O-])c1 | 35.5 µM [rising, single point] | 35.5 µM [rising, single point]
7 | Cc1oc(=O)c(NC(=O)c2cccc(Cl)c2)cc1C(=O)c1ccccc1 | 35.5 µM [falling, single point] | 17.8 µM [falling, single point]
8 | O=[N+]([O-])c1ccccc1/C=N/N1CCN(c2ccncc2S(=O)(=O)N2CCCCC2)CC1 | 28.2 µM [rising, single point] | 14.1 µM [rising, single point]
9 | COc1ccc(-c2c(C#N)c(N)nc3c2CCc2ccccc2-3)cc1OC | 35.5 µM [falling, single point] | 20 µM [falling, partial curve]
10 | O=c1ccc(Cc2ccc(Cl)cc2)n[nH]1 | – | 0.0501 µM [falling, full curve, poor fit]
11 | O=C(CN1CCN(S(=O)(=O)c2ccccc2)CC1)Nc1cccc(C(F)(F)F)c1 | 11.2 µM [rising, partial curve] | 11.2 µM [rising, partial curve]
12 | CC1=C(C(=O)Nc2cccc(F)c2)C(c2ccsc2)C2=C(CC(C)(C)CC2=O)N1 (centres undefined) | 5.62 µM [rising, single point] | –
13 | CSc1cccc(NC(=O)/C=C/c2cccc(Cl)c2)c1 | 25.1 µM [rising, single point] | 35.5 µM [rising, single point]
14 | COc1cc(NC(=O)N2CCN(c3cc(-c4noc(C)n4)ccc3C)CC2)cc(OC)c1OC | – | 0.501 µM [falling, full curve, poor fit]
15 | O=c1[nH]c(=O)n(C2C[C@H](O)[C@@H](CO)O2)cc1C(F)(F)F (some centres undefined) | 1.41 µM [rising, full curve] | 12.6 µM [falling, single point]
16 | CC(=O)c1ccc(NC(=S)Nc2ccc(N3CCOCC3)cc2)cc1 | – | 0.0126 µM [falling, partial curve, poor fit]
17 | CCOC(=O)CN(C(=O)CSc1nnc2c(n1)[nH]c1ccc(OC)cc12)c1ccc(F)cc1 | 35.5 µM [rising, single point] | –
18 | O=C(CSc1ccc(Cl)cc1)Nc1ccc(-c2nc3ccccc3[nH]2)cc1 | 0.224 µM [rising, full curve, poor fit] | –

An excerpt from above in order of number of heavy atoms, low to high.
Row | SMILES | AC50 [1] | AC50 [2]
10 | O=c1ccc(Cc2ccc(Cl)cc2)n[nH]1 | – | 0.0501 µM [falling, full curve, poor fit]
15 | O=c1[nH]c(=O)n(C2C[C@H](O)[C@@H](CO)O2)cc1C(F)(F)F (some centres undefined) | 1.41 µM [rising, full curve] | 12.6 µM [falling, single point]
2 | CC[n+]1c(/C=C/N(C)c2ccccc2)oc2ccccc21 | 12.6 µM [rising, partial curve] | –
16 | CC(=O)c1ccc(NC(=S)Nc2ccc(N3CCOCC3)cc2)cc1 | – | 0.0126 µM [falling, partial curve, poor fit]
3 | CC(C)(C)N/N=C/c1c(O)n(-c2ccc(Cl)cn2)c(=O)c2ccccc12 | 0.126 µM [rising, full curve, poor fit] | 2.51 µM [rising, single point]
6 | O=C(Nc1nnc(CSCc2ccc(F)cc2)s1)c1cccc([N+](=O)[O-])c1 | 35.5 µM [rising, single point] | 35.5 µM [rising, single point]
12 | CC1=C(C(=O)Nc2cccc(F)c2)C(c2ccsc2)C2=C(CC(C)(C)CC2=O)N1 (centres undefined) | 5.62 µM [rising, single point] | –
8 | O=[N+]([O-])c1ccccc1/C=N/N1CCN(c2ccncc2S(=O)(=O)N2CCCCC2)CC1 | 28.2 µM [rising, single point] | 14.1 µM [rising, single point]
14 | COc1cc(NC(=O)N2CCN(c3cc(-c4noc(C)n4)ccc3C)CC2)cc(OC)c1OC | – | 0.501 µM [falling, full curve, poor fit]

Later entries:

Row | SMILES | AC50 [1] | AC50 [2]
19 | Cc1ccc(C2=CC(C)(c3ccc(C)cc3)Nc3nc(C(F)(F)F)nn32)cc1 (centres undefined) | – | 31.6 µM [rising, single point]
20 | Cc1nnc(SCc2ccccc2)n1N | 11.2 µM [rising, single point] | –
21 | CC(C)c1ccc(OCC(O)Cn2cnc3ccccc32)cc1 (centres undefined) | 10 µM [rising, partial curve] | 2.82 µM [rising, single point]
22 | CCOC(=O)C1(CC2CC2)CCN(Cc2cn[nH]c2-c2ccccc2)CC1 | 0.1 µM [rising, full curve, poor fit] | –
23 | CCCOc1ccc(C2C(=O)N(C3CCCCCC3)CC(=O)N2CCCOCC)cc1OC (centres undefined) | 1.41 µM [rising, full curve, poor fit] | –
24 | CCOC(=O)c1c(C)[nH]c(C(=O)COC(=O)COc2ccccc2C)c1C | – | 2.51 µM [falling, full curve, poor fit]
25 | CCOc1ccccc1Nc1nc(-c2sc(NC(=O)c3ccc([N+](=O)[O-])cc3)nc2C)cs1 | 35.5 µM [falling, single point] | 35.5 µM [falling, single point]
26 | Cc1ccc(OCc2n[nH]c(=S)n2C2CCCCC2)cc1 | 14.1 µM [rising, single point] | –
27 | CNC(=O)COC(=O)/C=C/c1ccc(F)cc1 | – | 8.91 µM [falling, partial curve]
28 | O=C(Nc1nnc(C(F)(F)F)s1)C1COc2ccccc2O1 (centres undefined) | 12.6 µM [rising, single point] | –
29 | O=[N+]([O-])c1cccc(C(=S)N2CCN(c3ccccc3F)CC2)c1 | 15.8 µM [rising, partial curve] | –
30 | CN(CC(O)CON=C1c2ccccc2-c2ccccc21)S(=O)(=O)c1ccc(Br)cc1 (centres undefined) | 12.6 µM [falling, single point] | 15.8 µM [falling, partial curve, poor fit]
31 | O=C(Nc1ccc(Cl)cc1)N1CCOC12CCC1(CC2)OCCO1 | – | 0.0316 µM [falling, full curve, poor fit]
32 | CC(=O)c1ccc(NC(=O)COC(=O)c2c3c(nc4ccccc24)/C(=C\c2cccs2)CCC3)cc1 | – | 0.0398 µM [falling, full curve, poor fit]
33 | C(=N\Nc1nc2ccccc2s1)/c1ccco1 | 11.2 µM [rising, single point] | 12.6 µM [rising, single point]
34 | O=S(=O)(Nc1cccc(-c2ccc(N3CCOCC3)nn2)c1)c1ccc(F)cc1F | – | 0.0224 µM [falling, full curve, poor fit]
35 | Nc1[nH]nc2nc(NCc3ccccc3)c3c(c12)CCN(Cc1ccccc1)C3 | 11.2 µM [rising, partial curve] | –
36 | CCC(=O)NC(=S)Nc1cccc(Cl)c1N1CCCCC1 | 17.8 µM [falling, partial curve] | 35.5 µM [falling, single point]

Source: PubChem BioAssay AID1487 (National Center for Advancing Translational Sciences (NCATS), 2009)
